Reference: patent US5914313A (Merck & Co., Inc., priority 1993, dated 1999)

Test: peptide synthesis
Details: late stage modification step, trifluoroacetate, acetate or hydrochloride

Q: For “(N-benzyloxycarbonylglycyl)aminoethyl Ether”, which step yield is on record?
A: Yield=56%

Q: For “(R)-2-methoxycarbonyl-2-aminoethyl Ether Trifluoroacetate”, which step yield is on record?
A: Yield=4%

Q: For “(R)-3-hydroxy-2-aminopropyl Ether trifluoroacetate of above formula”, which step yield is on record?
A: Yield=41%

Q: For “(s)-2-methoxycarbonyl-2-aminoethyl Ether Trifluoroacetate”, which step yield is on record?
A: Yield=7%

Q: For “Glycylaminoethyloxy Ether as the Trifluoroacetate”, which step yield is on record?
A: Yield=49%
